The reference is the same well before dosing, and untreated signal decays as well.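 Fibroblast labels denote human fibroblasts, mainly primary ones from uterus (C12385, HUF), lung (H6013), bone (Hs27A), adrenal (HADF) and skin (WS1), plus mammary HMF and breast cancer-associated Hs343T. Cancer cells are basal-like or mesenchymal-like triple-negative breast cancer lines. A hit is a response shift exceeding 3x replicate standard deviation. The tissue of the other fibroblasts is not given here.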
Tested on: MDAMB436
Experiment: relative JC-1 red fluorescence (viability) vs pre-drug, coculture with fibroblast (fraction); higher = more viable cancer cells
Experimental: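 JC-1 labelled TNBC cells cocultured 1:1 (1,500 cells each) with CellTrace Violet stained primary or stromal fibroblasts in 384-well plates in FluoroBrite medium, treated with one of 42 anticancer drugs at 0.1, 1, 10 or 100 uM. JC-1 red fluorescence (mitochondrial integrity in cancer cells only) was read by plate reader every 8 h for 72 h. Values are normalised to each well's pre-drug value. The stock of one drug was tenfold lower, so its dose labels may be too high.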

O=c1[nH]cc(F)c(=O)[nH]1 [Fluorouracil]
relative JC-1 red fluorescence
Details | 8 h | 16 h | 24 h | 32 h | 40 h | 48 h | 56 h | 64 h | 72 h
10 µM, coculture fibroblast: C12385 | 0.821 | 0.732 | 0.7108 | 0.64 | 0.599 | 0.574 | 0.554 | 0.532 | 0.529
10 µM, coculture fibroblast: H6013 | 0.835 | 0.748 | 0.732 | 0.731 | 0.739 | 0.761 | 0.738 | 0.73 | 0.687
10 µM, coculture fibroblast: H6019 | 0.762 | 0.645 | 0.644 | 0.584 | 0.559 | 0.55 | 0.528 | 0.518 | 0.511
10 µM, coculture fibroblast: H6076 | 0.723 | 0.59 | 0.5325 | 0.501 | 0.494 | 0.484 | 0.498 | 0.511 | 0.514
10 µM, coculture fibroblast: H6231 | 0.7131 | 0.634 | 0.554 | 0.521 | 0.495 | 0.475 | 0.454 | 0.444 | 0.426
10 µM, coculture fibroblast: HADF | 0.883 | 0.823 | 0.78 | 0.752 | 0.728 | 0.739 | 0.695 | 0.678 | 0.64
10 µM, coculture fibroblast: HCFa | 0.793 | 0.6898 | 0.656 | 0.628 | 0.595 | 0.6 | 0.54 | 0.53 | 0.479
10 µM, coculture fibroblast: HCPF | 0.7581 | 0.654 | 0.54 | 0.499 | 0.466 | 0.428 | 0.396 | 0.38 | 0.364
10 µM, coculture fibroblast: HHSteC | 0.868 | 0.787 | 0.765 | 0.733 | 0.707 | 0.701 | 0.638 | 0.613 | 0.5603
10 µM, coculture fibroblast: HMF | 0.76338 | 0.658 | 0.549 | 0.519 | 0.497 | 0.468 | 0.464 | 0.454 | 0.45
10 µM, coculture fibroblast: HPFa | 0.894 | 0.871 | 0.829 | 0.803 | 0.801 | 0.83 | 0.766 | 0.751 | 0.702
10 µM, coculture fibroblast: HUF | 0.851 | 0.755 | 0.729 | 0.652 | 0.603 | 0.575 | 0.552 | 0.542 | 0.538
10 µM, coculture fibroblast: Hs5 | 0.781 | 0.683 | 0.587 | 0.535 | 0.51 | 0.476 | 0.483 | 0.456 | 0.4518
10 µM, coculture fibroblast: Hs27A | 0.826 | 0.757 | 0.715 | 0.697 | 0.669 | 0.706 | 0.642 | 0.644 | 0.59
10 µM, coculture fibroblast: Hs343T | 0.709 | 0.578 | 0.53 | 0.488 | 0.469 | 0.443 | 0.427 | 0.416 | 0.421
10 µM, coculture fibroblast: WS1 | 0.805 | 0.68 | 0.637 | 0.555 | 0.511 | 0.485 | 0.461 | 0.44 | 0.427
100 µM, coculture fibroblast: C12385 | 0.761 | 0.74 | 0.726 | 0.652 | 0.617 | 0.603 | 0.588 | 0.58 | 0.578
100 µM, coculture fibroblast: H6013 | 0.8252 | 0.7232 | 0.71 | 0.705 | 0.702 | 0.72 | 0.688 | 0.675 | 0.634
100 µM, coculture fibroblast: H6019 | 0.736 | 0.726 | 0.724 | 0.671 | 0.649 | 0.634 | 0.608 | 0.589 | 0.572
100 µM, coculture fibroblast: H6076 | 0.807 | 0.63 | 0.6134 | 0.566 | 0.54 | 0.503 | 0.502 | 0.491 | 0.478
100 µM, coculture fibroblast: H6231 | 0.7582 | 0.663 | 0.601 | 0.5497 | 0.512 | 0.476 | 0.468 | 0.457 | 0.442
100 µM, coculture fibroblast: HADF | 0.852 | 0.799 | 0.821 | 0.816 | 0.759 | 0.744 | 0.709 | 0.642 | 0.758
100 µM, coculture fibroblast: HCFa | 0.752 | 0.67028 | 0.628 | 0.585 | 0.568 | 0.582 | 0.525 | 0.52 | 0.477
100 µM, coculture fibroblast: HCPF | 0.78 | 0.651 | 0.62 | 0.565 | 0.531 | 0.491 | 0.467 | 0.451 | 0.435
100 µM, coculture fibroblast: HHSteC | 0.786 | 0.741 | 0.708 | 0.67 | 0.674 | 0.684 | 0.633 | 0.618 | 0.569
100 µM, coculture fibroblast: HMF | 0.786 | 0.6107 | 0.5735 | 0.523 | 0.491 | 0.451 | 0.446 | 0.432 | 0.423
100 µM, coculture fibroblast: HPFa | 0.8846 | 0.805 | 0.778 | 0.735 | 0.73 | 0.746 | 0.673 | 0.659 | 0.6
100 µM, coculture fibroblast: HUF | 0.82824 | 0.727 | 0.717 | 0.6479 | 0.595 | 0.56904 | 0.5455 | 0.537 | 0.53
100 µM, coculture fibroblast: Hs5 | 0.8273 | 0.689 | 0.64 | 0.578 | 0.547 | 0.51 | 0.511 | 0.497 | 0.481
100 µM, coculture fibroblast: Hs27A | 0.819 | 0.764 | 0.754 | 0.739 | 0.717 | 0.776 | 0.695 | 0.686 | 0.625
100 µM, coculture fibroblast: Hs343T | 0.764 | 0.599 | 0.528 | 0.469 | 0.423 | 0.382 | 0.371 | 0.358 | 0.3542
100 µM, coculture fibroblast: WS1 | 0.743 | 0.7243 | 0.706 | 0.635 | 0.597 | 0.58 | 0.569 | 0.545 | 0.538
